In the supplement of paper PMC5949888:
Most values lie at the floor of the assay. Slopes are relative: functional sequences can read slightly below zero.

The substances below were run on Saccharomyces cerevisiae PS128 hsf1 delta, HSF1(1-493) fusion (assay: growth estimate (transactivation domain function in HSF1 fusion, heat-shock survival) (a.u. (slope of normalised read count over time)); higher = stronger growth at 37°C, i.e. more transactivation activity). Details: library: random library.
LWPRLVPAWPTDTRSPGSVR gave a growth estimate of under -0.25. Substance LWQCPDWIQKS has a growth estimate of under -0.25. With LWQQFRSSGDDSLS the growth estimate was -0.229. LWRAQVFSILEFEDYALTFT showed a growth estimate of under -0.25. LWRKCPCRDRLDRSVVVQDI showed a growth estimate of under -0.25. Substance LWSWNVAWNSVSVK has a growth estimate of under -0.25. LWTLSGTAWCGGLVDPLSGR was tested, and the growth estimate was under -0.25. Substance LWTVGKNWYGQLVRGGSRGA has a growth estimate of under -0.25. LWV was tested, and the growth estimate was under -0.25. Work on LWVPDGGL yielded a growth estimate of under -0.25. For LWVTG, the growth estimate was under -0.25. With LWVTK the growth estimate was under -0.25. LYAAPVSSWAWDCQDNTVYY was tested, and the growth estimate was -0.0145. LYATKTKQ gave a growth estimate of under -0.25. LYAVRQPKGISSLCLQERYN showed a growth estimate of under -0.25. Work on LYDGSPRCPNGTHPPRSEGC yielded a growth estimate of under -0.25. LYHGLYVFANSSYHRGGF was tested, and the growth estimate was under -0.25. With LYHILLSWFSIIAWGGLHRG the growth estimate was 0.0721. For LYIPSRFSRDLLKRALVIAL, the growth estimate was under -0.25. LYKRCSTGFKIQKIKEPFAI was tested, and the growth estimate was -0.245. For LYLIPRGYGTCITDWPSAGE, the growth estimate was under -0.25. Substance LYLTFWLHVLLGRSWRHIMM has a growth estimate of -0.24. LYMEPLG showed a growth estimate of under -0.25. For LYMRLNSQCKPGAS, the growth estimate was under -0.25. Work on LYPGL yielded a growth estimate of under -0.25. In the case of LYPGYGHVIR, the growth estimate is reported as under -0.25. In the case of LYQLLIIKPCGVGTSAPGEP, the growth estimate is reported as under -0.25. LYRLEVY showed a growth estimate of under -0.25. LYRPG showed a growth estimate of under -0.25. In the case of LYSNVTKCGMHWAEKYWVKG, the growth estimate is reported as under -0.25. Work on LYSVIPVNPRAGN yielded a growth estimate of under -0.25. For LYTRNQRVSDTCIKRLEFQC, the growth estimate was under -0.25. LYVHVINPA was tested, and the growth estimate was under -0.25. LYVRIYTHVHAVPRRSFSWA showed a growth estimate of under -0.25. LYVTDKEC was tested, and the growth estimate was under -0.25. Work on LYYEMKFGLLQLLQLVLENA yielded a growth estimate of under -0.25. Substance MAHECRSVRIDSTGP has a growth estimate of under -0.25. MAHTIDNVKNSIRL was tested, and the growth estimate was under -0.25. MAKLSLRLTCPFRFVHGGLL gave a growth estimate of under -0.25. MALRADAVLLP was tested, and the growth estimate was under -0.25. MALRGTTYV gave a growth estimate of under -0.25. MALVPNYSVVTLLTGVTAV was tested, and the growth estimate was under -0.25. MAMSERY gave a growth estimate of 0.0934. In the case of MAPAVPFTRLVVMVAAAESL, the growth estimate is reported as under -0.25. Substance MARGTPPTHRFR has a growth estimate of under -0.25. MASDRAWRDRRQAWIF gave a growth estimate of -0.141. MCGVDTSRAVTRTADGAVV gave a growth estimate of under -0.25. MCKRRRPTYIVYKFVRTFTD showed a growth estimate of under -0.25. Substance MCQWPQIRLEQHWSAAHRAP has a growth estimate of under -0.25. Work on MCTDFGGYRVTRNRRSRCSF yielded a growth estimate of under -0.25. MDESAVGTVN gave a growth estimate of under -0.25. With MDFFIASLGPLSTHKLCNRD the growth estimate was under -0.25. MDGDSNGVI gave a growth estimate of under -0.25. Substance MDGTIRAVLRYTLRGWNSTE has a growth estimate of under -0.25. In the case of MDMVLLSE, the growth estimate is reported as under -0.25. With MDTIKMEVVTCDARYSST the growth estimate was under -0.25. With MEAKKIIR the growth estimate was under -0.25. Substance MECGADPSSC has a growth estimate of under -0.25. MEDAGWSE gave a growth estimate of under -0.25. In the case of MEEGGALHVRTTTWK, the growth estimate is reported as under -0.25. Work on MEGPWMSET yielded a growth estimate of under -0.25. Work on MEI yielded a growth estimate of under -0.25. MELKDFGENAQGLSPIGKSY gave a growth estimate of under -0.25. Work on MEN yielded a growth estimate of under -0.25. In the case of MESGMLLGNTYDISNRDPLK, the growth estimate is reported as -0.2. With MFIGSALRGVDLV the growth estimate was under -0.25. Work on MFPLSPWVGLWAISRHRPRP yielded a growth estimate of under -0.25. MFRANRVANAQSSPYRTPP gave a growth estimate of under -0.25. MFVSDSVSKFG showed a growth estimate of under -0.25. MGATGSPGFGNSVSKLQDYI showed a growth estimate of under -0.25. MGI gave a growth estimate of under -0.25. For MGITEMGNPGFARNF, the growth estimate was under -0.25.
